Results taken from PubChem BioAssay AID493014 (National Center for Advancing Translational Sciences (NCATS), 2011).
The list shows a part of the results. Further columns of the screen follow, without active or inactive calls. Most of these compounds were active or inconclusive in the main read-out, so they are no random draw. The note in brackets gives the kind of curve behind each potency; many fits are weak.

Test: qHTS Assay to Find Inhibitors of Chronic Active B-Cell Receptor Signaling
Settings: ABC-DLBCL IkBa-CBG/CBR reporter, luminescence ratio (green luciferase fused to IkBa over red control in TMD8 lymphoma cells), 4 h
Method in brief: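 Concentration-response series (up to 46 uM) were applied to TMD8 dual-reporter cells for 4 h at 37C with doxycycline. Green/red ratio, after filter-overlap correction, defined %Activity; red signal alone was normalised to basal cells and zero luminescence.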

[1] = measured here: CBR red luminescence, cell number
[2] = measured here: IkBa-CBG green luminescence

Compound	AC50 [1]	AC50 [2]
COC(=O)c1ccc(NC(=O)CO/N=C2\CCCc3nonc32)cc1	3.98 µM [rising, single point]	
C=CC[C@@H](CC(=O)N(CCO)Cc1ccccc1)C(=O)N[C@H](COC(=O)[C@@H](CC=C)CC(=O)OC(C)(C)C)Cc1ccccc1	18.4 µM [falling, partial curve, poor fit]	
S=c1[nH]nc(C2CCCCC2)n1/N=C/c1ccc(Br)cc1	17.8 µM [rising, single point]	
CC(=O)C1=C(O)C(=O)N(c2ccc(C(=O)O)cc2)C1c1ccccc1 (stereo unspecified)	0.82 µM [falling, full curve, poor fit]	
COc1cccc(OCC(O)CN2CCN(CCO)CC2)c1 (stereo unspecified)	13 µM [rising, partial curve, poor fit]	
COc1cccc(C(C(=O)NCC2CCCO2)N(C(=O)Cn2nnc3ccccc32)c2ccc(NC(C)=O)cc2)c1 (stereo unspecified)	35.5 µM [rising, single point]	
CCC(C)(C)NCC(=O)Nc1ccc(OC(F)(F)F)cc1	5.8 µM [rising, partial curve, poor fit]	
Cc1ccc(Nc2ncnc3ccccc23)cc1	1.12 µM [rising, full curve, poor fit]	
Cc1nn(C)c(Oc2ccccc2)c1CCNC(=O)CCl	17.8 µM [falling, partial curve, poor fit]	
CS(=O)(=O)c1ccccc1-c1nc(-c2ccc(C(F)(F)F)cc2)no1	0.708 µM [rising, full curve, poor fit]	
O=C(CSc1nnc2ccccn12)c1ccccc1	5.17 µM [falling, partial curve]	
COc1cccc2[nH]c(C(=O)NCCc3ccccc3)cc12	12.6 µM [falling, partial curve, poor fit]	
COc1ccccc1/C=C/C1(C(=O)NC2CCCC2)CC(=O)N1c1ccccc1 (stereo unspecified)	7.08 µM [falling, partial curve, poor fit]	6.31 µM [rising, partial curve, poor fit]
Cc1csc(NC(=O)CSc2nnc(C)c(=O)n2N)n1	11.2 µM [falling, partial curve, poor fit]	
COC(C[C@H]1O[C@H]1C(=O)COCc1ccccc1)OC	35.5 µM [rising, single point]	
Cc1cc(Nc2nc3ccccc3c3nnc(C)n23)ccc1Br	1.12 µM [rising, full curve, poor fit]	
COc1ccc(-n2c(CN3CCOCC3)nc3ccc([N+](=O)[O-])cc3c2=O)c(OC)c1	15.8 µM [rising, single point]	
Cc1[nH]nc(-c2ccc(O)cc2O)c1-c1ccc(Cl)cc1	35.5 µM [falling, single point]	
N#CC1=C2SC=C(c3ccc(Br)cc3)N2CCCC1=O	1.58 µM [rising, partial curve]	
CCc1noc(C)c1C(=O)Nc1ncc(C)s1	0.164 µM [rising, full curve, poor fit]	

3 compounds out of the list, arranged by SMILES length, ascending.
Compound	AC50 [1]	AC50 [2]
Cc1nn(C)c(Oc2ccccc2)c1CCNC(=O)CCl	17.8 µM [falling, partial curve, poor fit]	
N#CC1=C2SC=C(c3ccc(Br)cc3)N2CCCC1=O	1.58 µM [rising, partial curve]	
CS(=O)(=O)c1ccccc1-c1nc(-c2ccc(C(F)(F)F)cc2)no1	0.708 µM [rising, full curve, poor fit]	

Later entries:

Compound	AC50 [1]	AC50 [2]
CCCn1c(SC/C(O)=C(\C#N)c2nc3ccccc3[nH]2)n[nH]c1=O	7.94 µM [falling, partial curve]	
O=C(COc1ccc(Cl)cc1)Nc1ccc2c(c1)C(=O)NC2=O	1.78 µM [falling, full curve, poor fit]	
Nc1c(C(=O)Nc2cccc(F)c2)nnn1-c1ccc2c(c1)OCCO2	6.31 µM [falling, full curve, poor fit]	
COCc1ccc(C(=O)NC2CC(C)(C)Cc3c2cnn3-c2ccc(C)cc2)o1 (stereo unspecified)	35.5 µM [falling, single point]	
COC(=O)c1ccc(/C=N/Nc2nc3ccccc3[nH]2)cc1	35.5 µM [falling, single point]	
COc1ccc(O)c(C(=O)c2cnc3nc4ccccc4n3c2)c1	0.58 µM [rising, full curve, poor fit]	
CCOC(=O)C1CCN(C(=O)C2CCN(S(=O)(=O)c3c(C)noc3C)CC2)CC1	4.11 µM [falling, single point]	
CCOc1ccc(OCc2ccc(C(=O)N(CC)CC)cc2)cc1	20 µM [falling, partial curve, poor fit]	
CCC(=O)Nc1cccc(NC(=S)NC(=O)c2ccc(Cl)cc2Cl)c1	6.51 µM [rising, single point]	
CCOc1ccc(NC(=O)CN(C)CC(=O)NC(C)c2ccccc2)cc1OCC (stereo unspecified)	35.5 µM [rising, single point]	
O=c1oc2ccccc2c2c1SC(C(F)(F)F)C2 (stereo unspecified)	5.62 µM [rising, partial curve, poor fit]	
CCN1CCN(C(=O)CS(=O)(=O)Cc2nc(-c3ccc(C)cc3)oc2C)CC1	1.46 µM [rising, partial curve, poor fit]	
CN(C)c1ccc(CN(C(=O)/C=C/c2ccccc2Cl)C2CCS(=O)(=O)C2)cc1 (stereo unspecified)	35.5 µM [falling, single point]	
COC(=O)c1cc(NC(=O)Cc2coc3cc(OC)ccc23)cc(C(=O)OC)c1	2.82 µM [falling, full curve]	
CCOC(=O)Cc1csc(NC(=S)NC(=O)c2ccccc2Br)n1		16.4 µM [falling, single point]
CC(C)C[C@H]1CN=C(Nc2ccccc2)N1CC1CCCCC1	10 µM [falling, partial curve]	
O=C(Nc1ccc(C(F)(F)F)cc1)c1cccc(-n2cnnn2)c1	2.31 µM [rising, partial curve, poor fit]	
O=C(CSc1nc(Cc2ccccc2)nc2ccccc12)c1ccc2c(c1)OCCO2	23.1 µM [falling, partial curve, poor fit]	
CCN1C(=O)[C@H]2[C@@H](c3ccc(C)cc3)N3C(=O)N(c4cccc(Br)c4)C(=O)[C@@]3(Cc3ccccc3)[C@H]2C1=O	16.4 µM [falling, single point]	
O=C(Nc1cccc(-n2cccn2)c1)C1CCCN(Cc2cc3ccccc3[nH]2)C1 (stereo unspecified)	35.5 µM [falling, single point]	
